# PubChem BioAssay AID624297 (National Center for Advancing Translational Sciences (NCATS), 2012)
# Screen size: about 340,000 compounds; about 6,200 (1.8%) were called active. Inconclusive means that the source gave no clear call. Such entries were picked first, then a sample of the others. Calls come from the whole dose curve; as a rule, active = well fitted activation curve with a large enough effect; inconclusive = small, poorly fitted or top-dose-only effect; inactive = no such curve, though single readings can be large or run the other way. A potency beside an inconclusive call is a rough fit, not a confirmed value.
# Assay: A quantitative high throughput screen for small molecules that induce DNA re-replication in SW480 colon adenocarcinoma cells. For re-replication activation: % of control where 0% means no effect. Note: nearly all actives have a fitted effect of over 55% in size.
# Conditions: Hoechst DNA content imaging, 48 h; re-replication activation: at 46.1 µM (top of the series) unless noted
# Summary of the method: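 Readout is total intensity of Hoechst-stained nuclei, excited at 405 nm and collected at 500-530 nm. Compound treatment lasted 48 hr at 37 C in 5% CO2 before staining.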
# Potency is the fitted concentration of half-maximal effect.
SMILES,re-replication activation,Potency
Cc1sc(NC(=O)Cn2cnnn2)nc1-c1ccc(Cl)cc1,inactive: 4.91%,
CC(C)OC(=O)c1cccc(C(=O)OCc2ccco2)n1,,"inconclusive: 31.6 µM [activator, single point]"
O=C(NCc1ccco1)c1cc(-c2ccccc2)nn1CC1CC(c2cccc([N+](=O)[O-])c2)=NO1 (stereo not drawn),inactive: 1.76%,
CCOC(=O)C1=C(C)Nc2ncnn2C1/C=C/c1ccccc1 (stereo not drawn),,"inconclusive: 29.1 µM [activator, single point]"
Cc1ccc(C)c(NC(=S)NC(C)C(c2cccs2)N2CCOCC2)c1 (stereo not drawn),,"inconclusive: 29.1 µM [activator, partial curve, poor fit]"
Cc1csc(NC(=O)Cc2coc3cc(C)c(C(C)C)cc23)n1,,"inconclusive: 29.1 µM [activator, single point]"
O=C(NCC(O)c1ccc2ccccc2c1)c1c(F)cccc1F (stereo not drawn),inactive: 4.8%,
O=C(NC(CO)(CO)CO)c1coc(=O)c(Br)c1,,active: 7.31 µM
COc1ccccc1N1CCN(C(=O)c2oc3ccc(F)cc3c2C)CC1,,"inconclusive: 18.4 µM [activator, single point]"
COc1ccccc1N1CCN(C(=O)c2oc3ccc(Br)cc3c2C)CC1,,"inconclusive: 23.1 µM [activator, single point]"
COC(=O)c1cc2occc2n1Cc1ccc(Cl)cc1,,"inconclusive: 6.51 µM [activator, partial curve]"
Cc1cc(NC(=O)CSc2nc3ccccc3c(=O)n2Cc2ccc(F)cc2)no1,inactive: 13.3%,
CC(C)N(Cc1cc2ccccc2[nH]c1=O)C(=O)c1ccco1,inactive: -2.58%,
COc1ccc(C(=O)N/N=C(\c2ccccc2)c2ccccn2)cc1,,"inconclusive: 4.11 µM [activator, full curve]"
CCN1CCN(c2cc(C)c3cc(NC(=S)NCCN(C)C)ccc3n2)CC1,inactive: -5.75%,
CCN(CCO)C(=O)c1ccc2oc(Cc3ccc(Cl)cc3)nc2c1,inconclusive: 11.1% [activator],
CCN1CCN(c2nc3c(C)cccn3c(=O)c2/C=C(\C#N)S(=O)(=O)c2ccc(Cl)cc2)CC1,,"inconclusive: 1.64 µM [activator, partial curve, poor fit]"
Cc1ccc(NC(=O)c2ccc([N+](=O)[O-])s2)cc1S(=O)(=O)N1CCOCC1,,"inconclusive: 29.1 µM [activator, single point]"
C=CCNC(=S)Nc1ccc(C)cc1[N+](=O)[O-],inactive: -760% [at 1.84 µM],
CC(=O)Oc1c(Br)cc(N(C(C)=O)S(=O)(=O)c2ccccc2)c2ccccc12,,"inconclusive: 18.4 µM [activator, single point]"
CCCCN1C(=O)C(=O)N(CC(=O)c2ccc3c(c2)CCCC3)C1=O,inactive: -12.9%,
O=C(c1ccco1)N1CCN(CCCCOc2cccc3ccccc23)CC1,inconclusive: -399% [activator],
COc1cc(OC)cc(C(=O)N[C@H](C(=O)Nc2ccccc2N2CCOCC2)C(C)C)c1,,"inconclusive: 32.6 µM [activator, partial curve, poor fit]"
CCCC(=O)Nc1ccc(Cl)c(NC(=S)NC(=O)c2cc3ccccc3o2)c1,,"inconclusive: 18.4 µM [activator, partial curve, poor fit]"
CCn1cc(C(=O)O)c(=O)c2cc(F)c(N3CCN(C(=S)NC(=O)c4c(OC)cccc4OC)CC3)cc21,inactive: -42.9%,

SMILES,re-replication activation,Potency
C=CCCCCc1nc2ccccc2c(=O)n1N,,"inconclusive: 2.91 µM [activator, single point]"
O=C(N/N=C/c1ccncc1)c1sc2ccccc2c1Cl,inactive: -2.53%,
O=C1N=C(N2CCCCC2)S/C1=C\c1ccc(Br)cc1,inactive: -10.4%,
CCN1CCN(C(=O)c2nn(C)c3c2CS(=O)(=O)c2ccccc2-3)CC1,,"inconclusive: 23.1 µM [activator, single point]"
O=[N+]([O-])c1ccc(Cl)c(/C=N/N2CCN(c3ccccc3)CC2)c1,inactive: 2.63%,
NC(=O)c1c(NC(=O)CSc2nnc(Cc3ccccc3)n2Cc2ccco2)sc2c1CCC2,inactive: 2.14%,
COc1ccc(SC[C@H](Cc2ccccc2)N2CCN(C)CCC2=O)cc1,inactive: 6.17%,
O=C(CCC(=O)Nc1ccc(F)cc1)N/N=C/c1ccc(O)cc1O,,active: 9.2 µM
CCOc1ccc(C(C(=O)NC2CCCC2)N(C(=O)CNC(=O)c2ccco2)c2cccnc2)cc1 (stereo not drawn),inactive: -0.386%,
C=CCN(c1ccccc1)S(=O)(=O)c1cccc(C(=O)Nc2ncccc2O)c1,,"inconclusive: 29.1 µM [activator, single point]"
O=C(NCc1nc(-c2ccc(C(F)(F)F)cc2)no1)Nc1cc(Cl)cc(Cl)c1,,"inconclusive: 29.1 µM [activator, single point]"
CCOc1ccc2c(c1)sc(N)[n+]2Cc1cc(C)cc2cccnc12,,active: 4.61 µM
CC(=O)N1CCc2cc(Br)cc(S(=O)(=O)NCCCN(C)Cc3ccccc3)c21,inactive: -17.3%,
O=C(NCC1CCCO1)C(=O)NCC(c1ccco1)N1CCN(c2ccccc2)CC1 (stereo not drawn),,"inconclusive: 29.1 µM [activator, partial curve, poor fit]"
CN(C)CCn1c(=N)n(CC(O)c2ccc(Cl)c(Cl)c2)c2ccccc21 (stereo not drawn),,"inconclusive: 18.4 µM [activator, single point]"
CCSc1nnc(NC(=O)C2CCN(S(=O)(=O)c3ccccc3C(F)(F)F)CC2)s1,inactive: -0.535%,
CCOC(=O)c1nnn2c1nc(Nc1cccc(C(F)(F)F)c1)c1ccccc12,,"inconclusive: 29.1 µM [activator, partial curve, poor fit]"
CCCCn1nc(NC(=O)c2cccs2)c2cc3ccccc3nc21,,"inconclusive: 6.51 µM [activator, single point]"
COc1ccc2c(C)cc(SCC(=O)Nc3cccnc3Cl)nc2c1,,"inconclusive: 25.9 µM [activator, single point]"
Cc1nc(SCC(=O)c2cc3ccccc3oc2=O)c(C#N)c(-c2cccs2)c1C(=O)Nc1ccccc1,,"inconclusive: 18.4 µM [activator, single point]"
CCCCn1c(=NC(C)=O)c(C#N)cc2c(=O)n3cccc(C)c3nc21,,active: 20.6 µM
CSC1=C(C#N)C(c2ccccc2)C(C(C)=O)=C(C)N1 (stereo not drawn),inactive: -5.35%,
O=C(Nc1cccc(Cl)c1)c1cc(F)cc2c1OCOC2,,"inconclusive: 6.51 µM [activator, single point]"
COc1cc(/C=C2\CCC(C)C3=C(c4cc(OC)c(OC)c(OC)c4)C(C#N)=C(N)OC32)cc(OC)c1OC (stereo not drawn),,"inconclusive: 23.1 µM [activator, single point]"
Cc1cccn2c(=O)c(/C=C(\C#N)S(=O)(=O)c3ccccc3)c(Oc3ccc(Cl)cc3)nc12,inactive: -1.32%,

# As a short view, part of the list above.
SMILES,re-replication activation,Potency
C=CCN(c1ccccc1)S(=O)(=O)c1cccc(C(=O)Nc2ncccc2O)c1,,"inconclusive: 29.1 µM [activator, single point]"
O=C(NCc1nc(-c2ccc(C(F)(F)F)cc2)no1)Nc1cc(Cl)cc(Cl)c1,,"inconclusive: 29.1 µM [activator, single point]"

# Following part

SMILES,re-replication activation,Potency
COc1ccc(CN(C)C(=O)c2cccc(S(=O)(=O)N3CCc4ccccc43)c2)c(OC)c1,,"inconclusive: 0.58 µM [activator, full curve, poor fit]"
CCc1sc(C(=O)Nc2ccc(NC(C)=O)cc2)cc1C,inactive: 1.54%,
O=C(C(=Cc1ccccc1)CN1CCCCC1)c1ccccc1,,active: 2.91 µM
Cc1[nH]nc(SCC(=O)N(C)c2ccccc2)c1[N+](=O)[O-],inactive: 16.6%,
CCOC(=O)C1(Cc2ccccc2)CCN(Cc2cccn2-c2nccs2)CC1,,"inconclusive: 29.1 µM [activator, single point]"
Cn1c(N/N=C/c2c[nH]c3ccccc23)nc2ccccc21,,"inconclusive: 29.1 µM [activator, single point]"
CC12CCC(O)CC1=CCC1C2CCC2(C)C(c3ccn[nH]3)CCC12 (stereo not drawn),,"inconclusive: 29.1 µM [activator, single point]"
COc1ccc(C(=O)NC2CCCc3ccccc32)cc1Br (stereo not drawn),,"inconclusive: 25.9 µM [activator, partial curve, poor fit]"
Cc1ccnc(NS(=O)(=O)c2ccc(N)cc2)n1,,"inconclusive: 0.259 µM [activator, single point]"
Cc1cc2nc(CCN(Cc3cccnc3)C(=S)Nc3ccc(F)cc3)[nH]c2cc1C,,"inconclusive: 25.9 µM [activator, single point]"
COc1ccc(C(CC(=O)O)N2C(=O)CCC2=O)cc1 (stereo not drawn),inactive: 4.62%,
O=C(O)C1CC(=O)N(c2ccc(OCc3ccc(Cl)cc3Cl)cc2)C1 (stereo not drawn),inactive: -0.203%,
c1ccc(-c2csc(NC3CCCCC3)n2)cc1,inactive: 11%,
CCOC(=O)Cc1csc(NC(=S)NC(=O)c2cc(OC)cc(OC)c2)n1,inactive: -7.37%,
Cc1ccc(CNC(=O)Cn2cnc3c(OCc4ccccc4)ncnc32)o1,,"inconclusive: 0.146 µM [activator, full curve, poor fit]"
Oc1cccc(C2c3[nH]c4ccccc4c3CCN2Cc2ccc3c(c2)CCO3)c1 (stereo not drawn),,"inconclusive: 29.1 µM [activator, single point]"
CC(=O)c1cc2c(cc1NC(=O)c1cc(C)nn1-c1ccccc1)OCO2,,"inconclusive: 4.61 µM [activator, full curve]"
CCc1ccc(N(C(=O)c2snc(C(N)=O)c2N)C(C(=O)NCC2CCCO2)c2cccs2)cc1 (stereo not drawn),,"inconclusive: 29.1 µM [activator, single point]"
Cn1c(SCC(=O)NC2CC2)nnc1-c1cccs1,inactive: -4.9%,
O=C(Nc1ccccc1N1CCOCC1)c1cc(=O)[nH]c2ccccc12,inactive: 1.34%,
O=C(Cn1nnc(-c2cccc(C(F)(F)F)c2)n1)NNS(=O)(=O)c1cccc(C(F)(F)F)c1,inactive: -16.7%,
CC(C)(C)S(=O)N1Cc2cc(=O)n(Cc3ccccc3)c(CCO)c2[C@H]1CCO (stereo partly drawn),inactive: 2.39%,
O=C(NCc1ccc(Cl)cc1)C(=O)NCC1OCCN1C(=O)c1ccc(Cl)cc1 (stereo not drawn),inactive: -7.22%,

# Part of the list above in order of number of heavy atoms, low to high:
SMILES,re-replication activation,Potency
Cc1ccnc(NS(=O)(=O)c2ccc(N)cc2)n1,,"inconclusive: 0.259 µM [activator, single point]"
O=C(C(=Cc1ccccc1)CN1CCCCC1)c1ccccc1,,active: 2.91 µM
CCc1ccc(N(C(=O)c2snc(C(N)=O)c2N)C(C(=O)NCC2CCCO2)c2cccs2)cc1 (stereo not drawn),,"inconclusive: 29.1 µM [activator, single point]"
